This is an account of results in PMC11506057, “Identification of Podoplanin Aptamers by SELEX for Protein Detection and Inhibition of Platelet Aggregation Stimulated by C-Type Lectin-like Receptor 2”.

Protein sequences, listed by entry. Tags and fused reporters are not part of them. Lines headed by an entry give the natural chain unless they say otherwise; changes in a name come on top.
UniProt Q9P126: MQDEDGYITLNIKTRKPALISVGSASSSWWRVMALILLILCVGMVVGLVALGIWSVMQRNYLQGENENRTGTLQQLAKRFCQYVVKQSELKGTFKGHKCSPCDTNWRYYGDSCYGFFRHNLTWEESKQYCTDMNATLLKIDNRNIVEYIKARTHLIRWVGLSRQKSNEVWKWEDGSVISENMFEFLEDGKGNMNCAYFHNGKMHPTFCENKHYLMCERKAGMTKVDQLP

Construct, isoform or probe ends are uncertain for at least one entry. For some assays here: Weaker means in comparison with the reference protein, sequence or condition of that experiment. For some assays here: At least one verdict rests on a figure or table, not on a statement of the authors. For some assays here: Tags and fusion partners may be left off the protein sequences shown. For some assays here: At least one result comes from cells or an extract, where the contact may be indirect. For some assays here: No signal at the amounts used counts as a negative.

Series [1] deals with podoplanin (PDPN), denatured (UniProt Q86YL7). The series can be described thus: dot blot. The settings on record: denatured PDPN, commercial protein, protein details: His, Fc, folded or branched DNA.
The target in series [2] is CLEC-2 with C-terminal His-Tag (human) (UniProt Q9P126). The series can be described thus: flow cytometry. The settings on record: FAM-A1 1 uM, HEK293T; protein on the cell surface; protein details: C-terminal His; folded or branched DNA. In general terms: Flow cytometry measures light scatter and fluorescence of single cells or particles in a stream.
The target of series [3] is CLEC-2 without tag (human) (UniProt Q9P126). The series can be described thus: flow cytometry. The settings on record: FAM-A1 1 uM, HEK293T; protein on the cell surface; folded or branched DNA.
Series [4] addresses podoplanin (PDPN) on PDPN+-OECM-1 cells (UniProt Q86YL7). Description: flow cytometry. The settings on record: concentration-dependent, PDPN-negative CHO-K1 cells not bound; protein on the cell surface; folded or branched DNA.
In series [5] the target is podoplanin (PDPN), denatured (UniProt Q86YL7). The series can be described thus: Western blot with aptamer probe. The settings on record: 200 nM biotin-A1, signal linear with PDPN, R2 0.8984; commercial protein; protein details: His, Fc; folded or branched DNA. In general terms: A western blot detects proteins with antibodies after separation by electrophoresis.
The target of series [6] is T1, podoplanin (PDPN), recombinant PDPN-His-Fc (UniProt Q86YL7).
T1 sequence (looked up, limits assumed): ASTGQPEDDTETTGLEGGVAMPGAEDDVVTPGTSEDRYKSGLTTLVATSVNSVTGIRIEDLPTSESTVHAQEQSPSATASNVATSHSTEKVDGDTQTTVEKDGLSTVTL
Description: dot blot. The settings on record: PDPN 50 nM, aptamer 80 nM, weakest of six, commercial protein, protein details: His, label: biotin, folded or branched DNA.

In the case of “ATCCAGAGTGACGCAGCACACCGAGGGGACTGCTCGGGATTGCGGATGAGGTAGCAAGTGGACACGGTGGCTTAGT [A6]”, the binding result in series [1] (label: biotin) was “binds more weakly”.

Turning to “ATCCAGAGTGACGCAGCACGGGTTTGGCGCCGGGCCTGGCGGGTGTAGCGTTTTTGGGTGGACACGGTGGCTTAGT [A289]”, in series [1] (label: biotin), the binding result was “binds more weakly”.

With “ATCCAGAGTGACGCAGCATCACTAGTGCGCCAGGGGGACTGCTCGGGATTGCGGATACTGGACACGGTGGCTTAGT [A1]”, the binding result is reported as “binds more weakly” in series [1] (recognized, but less than native); “no binding” in series [2]; “no binding” in series [3]; “binds” in series [4]; “binds” in series [5].

Consider “ATCCAGAGTGACGCAGCATGCAGGGTTTGGCTTCGGGCCTGGCGGAGAGAGCGTGAGGTGGACACGGTGGCTTAGT [A1498]”, for which, in series [1] (label: biotin), the binding result was “binds more weakly”.

For the sequence “ATCCAGAGTGACGCAGCATGCCAAAGGGTCTGCTCGGGATTGCGGAGAGGGCTTGGGGTGGACACGGTGGCTTAGT [A5]”, in series [1] (label: biotin), the binding result is “binds more weakly”.

With “ATCCAGAGTGACGCAGCATGGGGGGAGAGTGTGGTCTGGCTTGGTGGGGTCTGGGGGCTGGACACGGTGGCTTAGT [A77]”, the binding result in series [1] (label: biotin) and in series [6] was “binds more weakly” each time.
